# Assay results as given in PubChem BioAssay AID1347423 (Functional Genomics Laboratory (NCATS/FGL), 2020).
# The whole screen tested about 52,000 sequences, of which about 210 (0.4%) were called active.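 The calls were made as follows: active = gene whose silencing raises cell survival under the drug, median off-target-corrected z-score across its silencing RNAs 2 or more; inactive = the rest.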 The list shows a part of the results.
# Assay: Resistance to Poly (ADP-Ribose) Polymerase inhibitor: Gene Identification via Genome-wide siRNA Screen
# Conditions: mouse BRCA2 R2336H ES cells, olaparib, CellTiter-Glo viability; hits give high values
# Summary of the method: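 Genome-wide siRNA screen (3 siRNAs/gene, 20 nM) in mouse ES cells carrying hypomorphic BRCA2 R2336H; olaparib 500 nM added 48 h post-transfection, CellTiter-Glo viability 72 h later. Normalized to plate-median negative control; MAD z-scores, gene median, seed-adjusted.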
row,Sequence,z-score
1,GGUCCAUGAUUGAAACACGTT against Srpr,inactive: 0.466
2,GGACUAUUUCACAAACGCATT against Moxd1,inactive: -0.126
3,GGUAUUUUUCAUGGCUCUCTT against Olfr305,inactive: 1.09
4,GGUAGUGGAGUUCAAGUCCTT against Dnahc1,inactive: 2.6
5,GCGGAAGUGGAUUCUAGAGTT against 1110028N05Rik,inactive: -0.284
6,GGAGGAACAAGUUGUGCCUTT against 9430022F06Rik,inactive: 0.999
7,GGGCUUUGAAUACAUCCUGTT against 2610524G07Rik,inactive: 0.218
8,GCCCUACGCUCGAAUGGAATT against Il17b,inactive: -0.66
9,GGAGGUCACCCUCAAGAUGTT against Gjb4,inactive: -0.479
10,GGAUUCUCUGUAGCUCAAATT against Magea5,inactive: -2.59
11,GGACACUGUACUCAAACCUTT against C230078M14,inactive: 0.624
12,GCCUUUUUAAAGCUCAAGUTT against LOC434179,inactive: 0.972
13,GCGAACAACCACGUUUUUCTT against Ddx18,inactive: 0.583
14,GGGAUUCUUUAAGAGCUCUTT against Prdx2,inactive: 0.782
15,GGGAAGCAUGCAGAACAGCTT against Parg,inactive: 0.655
16,GGAAUACUAUGUUGAUUACTT against Lrrtm1,inactive: 0.0161
17,CGAAUUUGGCUUCAGAUGATT against Ppp2r1b,inactive: 0.593
18,GGACUCAUGAUUACAGCACTT against Tas2r134,inactive: 1.06
19,CCUAAUUAUGUCAAGAUGATT against Foxm1,inactive: -0.428
20,GGCAAUAACCACAUGAAAGTT against Sgtb,inactive: 1.3
21,CGGCUUAUGAGUUAAAGACTT against Rad51l1,inactive: -1.94
22,GGCGAUGUGAUGGAUGUAGTT against Hira,inactive: -1.52
23,CCAAAGGUAUAUAGAGGUUTT against Plce1,inactive: -0.791
24,CCGAGUAUAUCUAUAAUAGTT against Ear14,inactive: -1.62
25,GGCUCUCGUUAAAUACUGGTT against Pik3r4,inactive: 1.04
26,GGUUCAGACCAUCUUGGAATT against Bag3,inactive: -2.72
27,GCCUUCUGGCAAGAAUCUUTT against 2310040M23Rik,inactive: 0.569
28,GAUGAUCUUUCUUUCCAUCTT against D630024D12Rik,inactive: 0.0515
29,CGAUCGAAAUCAAGUCGAUTT against 9-Sep,inactive: -0.907

# Exported as tab-separated lines: entries from further up.
row	Sequence	z-score
5	GCGGAAGUGGAUUCUAGAGTT against 1110028N05Rik	inactive: -0.284
6	GGAGGAACAAGUUGUGCCUTT against 9430022F06Rik	inactive: 0.999
